Test results reported in PubChem BioAssay AID2810 (NMMLSC, 2010).
Some of the results follow.

Experiment: modulators of CD8 T cell-vesicle binding, confirmation, cherry-picked primary hits, two concentrations (AID 2810);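 further: lower values mean blocking of vesicle binding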;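 on percent response (vesicle binding): ratio of mean FL2 vesicle stain of CD8+ cells to that row's control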
Details: 2C CD8+ T cell-vesicle binding, flow cytometry; for double positive events: CD8+/vesicle+ events
[1] = at 15.4 µM, stronger effect = lower value

| Structure (SMILES) | double positive events (at 7.7 µM) | double positive events [1] | percent response (vesicle binding) (at 7.7 µM) |
| --- | --- | --- | --- |
| C[N+]1=C2C=CC=CC=C2SC12C([N+](=O)[O-])=CC([N+](=O)[O-])=C[C-]2[N+](=O)[O-] (centres undefined) | 32.9% | 28.1% | 751% |
| CCOC(=O)c1ccc(NP(C)(=O)Oc2ccccc2)cc1 (centres undefined) | 20.8% | 14.3% | 296% |
| COc1ccccc1OP(C)(=O)Nc1c(C)cccc1C (centres undefined) | 24.3% | 12.3% | 385% |
